Values quoted from earlier work as cited in US11446277B2, “Penetrating pain relief cream” (priority 2019, dated 2022).

In the case of `CCCCCc1cc(O)c2c(c1)OC(C)(C)[C@@H]1CCC(C)=C[C@@H]21` [THC, Δ9-tetrahydrocannabinol], the “solubility in most organic solvents” value (organic solvents, specifically lipids and alcohols) is given as “good solubility” and the solubility in water (water) is given as “very low solubility”.
